According to US12049483B2, “Selective and noncovalent inhibitors of oncogenic RAS mutants” (New York University, priority 2020, dated 2024):
Some of these results come from one statement about several compounds together.

System: pERK level in H23 cells
Assay: Inhibition versus degradation: ERK signaling of H23 cells after withdrawal
Type: cell-based
Settings: after withdrawal of ARS1620 or dox

In the case of `C=CC(=O)N1CCN(c2ncnc3c(F)c(-c4c(O)cccc4F)c(Cl)cc23)CC1` [ARS1620], the “time to pERK level rebound after withdrawal” value is reported as ≤ 24 hours.
